# PubChem BioAssay AID2685 (National Center for Advancing Translational Sciences (NCATS), 2010)
# The other results are listed elsewhere or left out. The main result of the screen is listed elsewhere. These columns were measured beside it and carry no call. The list favours compounds with an active or inconclusive main result. The note in brackets gives the kind of curve behind each potency; many fits are weak.
# Experiment: qHTS Assay for Lipid Storage Modulators in Drosophila S3 Cells;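 on cell number change: cells counted by Cell Tracker Red CMTPX staining in the red channel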
# Details: BODIPY lipid droplet fluorescence, 18-24 h; for cell number change: measured here: cell count max response, cells fed with added oleic acid
# In short: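 Drosophila S3 cells got compounds at several concentrations plus oleic acid (400 uM solution). Laser-scanning cytometry with 488 nm excitation read lipid droplets at 500-530 nm and cells at 575-640 nm. Percent activity was relative to 20 uM Triacsin C.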
# [1] = measured here: lipid fluorescence (Fed channel) AC50, cells fed with added oleic acid
# [2] = measured here: cell number channel AC50, cells fed with added oleic acid
SMILES,cell number change,AC50 [1],AC50 [2]
COc1cc(/C=C\C(=O)NCc2ccc3c(c2)cc(C)n3C)cc(OC)c1OC,12.6%,"4.11 µM [rising, partial curve, poor fit]",–
CCN1CCCC1CNC(=O)Cn1cc2c(n1)CCC(C)C2 (stereo unspecified),-6.51%,"20.6 µM [falling, single point]",–
CNS(=O)(=O)c1cccc(C(=O)NCC2CCCCC2)c1,-2.7%,–,–
Cc1cccc2nc(CSc3ccc(Cl)cc3)cn12,-16%,"4.11 µM [falling, full curve]","6.51 µM [falling, single point]"
CCOc1c(CNCc2ccc(C(=O)O)cc2)cccc1OC,48.4%,–,"29.1 µM [rising, single point]"
S=C(NCCc1ccccc1)NC1CC1,–,"1.46 µM [rising, partial curve]",–
CCOC(=O)c1oc2nc(C(C)C)c3c(c2c1N)CCC3,11.9%,"0.0651 µM [rising, full curve, poor fit]",–
Cc1nnc(NC(=O)CCSc2ccc(Cl)cc2)s1,0.088%,–,"0.731 µM [falling, partial curve]"
O=C(NCC1CCCCC1)C1CCCN(C(=O)NC2CCCCC2)C1 (stereo unspecified),-0.209%,"10.3 µM [rising, single point]",–
CCCn1c(=N)c(C#N)cc2c(=O)n3cccc(C)c3nc21,6.2%,"6.51 µM [rising, partial curve, poor fit]",–
O=C(Nc1ncn[nH]1)c1ccc(Cl)c(S(=O)(=O)N2CCCCCC2)c1,–,–,"0.0411 µM [rising, single point]"
COc1cccc(C(C(=O)NC2CCCC2)N(C(=O)c2ccco2)c2ccc(NC(C)=O)cc2)c1OC (stereo unspecified),-7.89%,"7.08 µM [falling, partial curve]","0.116 µM [falling, full curve, poor fit]"
CCOC(=O)c1c(-c2ccccc2)n(C)c2ccc(O)cc12,71.9%,"18.4 µM [rising, partial curve]","10.3 µM [rising, partial curve]"
COC(CNC(=O)c1ccc2c3c(onc13)-c1ccccc1C2=O)OC,-53.9%,"10.3 µM [falling, partial curve]","16.4 µM [falling, partial curve]"
O=C(/C=C/c1ccc(F)cc1)Nc1ccc2[nH]c(=O)[nH]c2c1,2.61%,"2.91 µM [falling, partial curve, poor fit]","6.51 µM [falling, single point]"
CCOC(=O)C1CCCCN1Cc1cn(C)nc1-c1ccccc1F (stereo unspecified),-25.7%,"29.1 µM [falling, single point]",–
CSc1nsc(SC)c1C(=O)N1CCN(S(=O)(=O)c2ccc(C)cc2)C1C(C)C (stereo unspecified),-21.3%,"29.1 µM [falling, single point]",–
Cc1cc(=O)oc2ccc(OCC(=O)NCc3ccco3)cc12,–,"4.11 µM [falling, partial curve, poor fit]",–
O=C(Cc1ccccc1)N1CCC(C(=O)N2CCN(c3ccc(F)cc3)CC2)CC1,–,"0.517 µM [rising, partial curve]","0.651 µM [rising, partial curve]"

# Three of the compounds above, as tab-separated lines:
SMILES	cell number change	AC50 [1]	AC50 [2]
S=C(NCCc1ccccc1)NC1CC1	–	1.46 µM [rising, partial curve]	–
CCOC(=O)c1oc2nc(C(C)C)c3c(c2c1N)CCC3	11.9%	0.0651 µM [rising, full curve, poor fit]	–
Cc1nnc(NC(=O)CCSc2ccc(Cl)cc2)s1	0.088%	–	0.731 µM [falling, partial curve]

# Remaining list, next part

SMILES,cell number change,AC50 [1],AC50 [2]
CCOCCCNC(=O)c1ccc(N2CC3CC(C2)c2cccc(=O)n2C3)c(NC(=O)Nc2cccc(OC)c2)c1 (stereo unspecified),8.9%,"25.9 µM [rising, partial curve]",–
O=C(Nc1cccc(S(=O)(=O)N2CCOCC2)c1)[C@@H]1CCCN1S(=O)(=O)c1ccc(Cl)cc1,27.9%,–,–
OC(CCc1ccncc1)c1ccccc1 (stereo unspecified),21.9%,"4.61 µM [rising, partial curve, poor fit]",–
CC(n1cnnn1)C12CC3CC(CC(C3)C1)C2 (stereo unspecified),-17.1%,"0.651 µM [falling, single point]",–
Cc1ccccc1NC(=O)c1ccc(C)c(S(=O)(=O)Nc2cccnc2)c1,-17.6%,"0.116 µM [falling, full curve, poor fit]",–
COc1ccc(C)cc1NC(=O)NC(C)c1ccc2c(c1)OCO2 (stereo unspecified),–,"6.51 µM [falling, partial curve, poor fit]",–
Cc1ccc(NC(=O)Cn2c(=O)oc3cc(S(=O)(=O)N4CCC(C)CC4)ccc32)cc1C,31.2%,–,"20.6 µM [rising, single point]"
C[C@@H](NC(=O)[C@@H]1Cc2ccccc2CN1)C(=O)Nc1ccc2c(c1)OCCO2,-65.2%,"0.58 µM [rising, single point]",–
Cc1ccc(NC(=O)NC(=O)CN2CCC(C(N)=O)CC2)c(C)c1,-30.7%,–,"0.164 µM [falling, full curve, poor fit]"
NNC(=O)CCc1nc2ccccc2[nH]1,–,"6.51 µM [rising, partial curve, poor fit]",–
Cc1ccc(C(=O)Oc2cccnc2)cc1[N+](=O)[O-],24.7%,"20.6 µM [falling, partial curve, poor fit]",–
O=C(CSc1ncn[nH]1)N1N=C(c2ccc(Cl)cc2)CC1c1ccco1 (stereo unspecified),18.7%,–,–
C=CCN(Cc1nc(-c2ccccc2)no1)C(=O)c1ccco1,7.83%,–,–
C[C@H](NC(=O)c1ccc(Cl)cc1)C(=O)NCCc1ccc(S(N)(=O)=O)cc1,26.8%,"32.6 µM [rising, partial curve, poor fit]",–
CCOC(=O)CN1C(=O)NC(C)(c2ccc(OC(F)F)cc2)C1=O (stereo unspecified),-25.4%,"6.51 µM [falling, single point]",–
Cc1ccc(NS(=O)(=O)c2c(C)[nH]c(=O)[nH]c2=O)c(C)c1,-7.8%,"6.51 µM [falling, single point]",–
COc1ccc(C(=O)NC(=S)NNC(=O)c2cnccn2)cc1OC,-24.5%,"1.64 µM [falling, partial curve, poor fit]",–
Cc1ccc(C2=Nc3ccccc3SC(c3cccc([N+](=O)[O-])c3)C2)cc1 (stereo unspecified),-35.5%,"2.06 µM [rising, partial curve]","29.1 µM [falling, single point]"
